These are yes or no findings as the source states them, for the method shown. A result given as binding can be weak or reduced; the word gives no strength. Tags and fused reporters may be left off the sequences shown.
Biological target: T1, nectin-1 V-domain fused to maltose binding protein (N1V-MBP), wild type (human) (UniProt Q15223)
T1 sequence: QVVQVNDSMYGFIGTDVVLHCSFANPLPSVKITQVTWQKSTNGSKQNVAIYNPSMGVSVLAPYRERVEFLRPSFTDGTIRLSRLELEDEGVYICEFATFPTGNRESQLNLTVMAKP
Test: ELISA; N1V-MBP proteins immobilised on a 96 well plate (10 µg/ml in PBS, overnight at 4°C); purified gD serially diluted in PBS-T milk; bound gD detected with polyclonal rabbit serum R8; both purified

Substance: HSV-1 glycoprotein D ectodomain truncated at residue 306 (gD306t) (herpes simplex virus type 1) (domain or fragment)
- binding: binds

From publication PMC3182920
